Measured values from PubChem BioAssay AID2417 (National Center for Advancing Translational Sciences (NCATS), 2010).
About 4,300 (3.1%) of roughly 140,000 compounds were called active. This list was built around the results that the source calls inconclusive (neither active nor inactive); the mix of calls is not that of the screen.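 The calls were made as follows: active = readout at or below -70, meaning at least 70% loss of cells showing the perinucleolar compartment, a nuclear body marking cancer cells; inconclusive = readout between -30 and a set limit; inactive = the rest.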

Assay: High Content Assay for Compounds that inhibit the Assembly of the Perinucleolar Compartment;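 also: plate controls were DMSO wells for no effect and camptothecin positive control wells for full effect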
Conditions: PC3M PTB-GFP, PNC prevalence imaging, 16 h; at 10 µM; stronger effect = lower value
Method in brief: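 Compounds are pinned in duplicate onto adhered PC3M cells stably expressing GFP-tagged PTB and incubated 16 h at 37 C. Cells are then fixed, nuclei stained with Hoechst, and PNC-positive cells counted.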

Q: With COc1ccc(S(=O)(=O)Cc2ccc(C(=O)N3CCN(c4cc(Cl)ccc4C)CC3)o2)cc1 as the compound, how does the activity change (PNC), negative = inhibition read?
A: The activity change (PNC), negative = inhibition was inactive: 5.11%.

Q: For COCCCNC(=O)C(C#N)c1nc2ccccc2nc1N1CCN(Cc2ccccc2)CC1 (centres undefined), which activity change (PNC), negative = inhibition is on record?
A: Its activity change (PNC), negative = inhibition is inconclusive: -50.1%.

Q: Which activity change (PNC), negative = inhibition does the source give for CCOc1cccc(N2C(=O)CC(N3CCC(C(N)=O)(N4CCCCC4)CC3)C2=O)c1 (centres undefined) here?
A: Its activity change (PNC), negative = inhibition is inactive: -14.9%.

Q: For Cc1csc(SCC(=O)c2ccc(S(=O)(=O)N3CCOCC3)cc2)n1, which activity change (PNC), negative = inhibition is on record?
A: The activity change (PNC), negative = inhibition was inactive: 8.44%.

Q: Which activity change (PNC), negative = inhibition does the source give for c1coc(CNc2ncnc3c2oc2ccccc23)c1 here?
A: Its activity change (PNC), negative = inhibition is inconclusive: -34.4%.

Q: For COc1ccc(-n2nnnc2S(=O)(=O)Cc2ccc(C(=O)O)cc2)cc1, which activity change (PNC), negative = inhibition is on record?
A: Its activity change (PNC), negative = inhibition is inactive: 5.41%.

Q: For NC(N)=NC(=O)c1nc(Cl)c(N)nc1N, which activity change (PNC), negative = inhibition is on record?
A: The activity change (PNC), negative = inhibition was active: -115%.

Q: With COc1ccc(CCNC2=NCCS2)cc1 as the compound, how does the activity change (PNC), negative = inhibition read?
A: Its activity change (PNC), negative = inhibition is inconclusive: -51.2%.

Q: Which activity change (PNC), negative = inhibition does the source give for CCOC(=O)c1ccc(Nc2cc(C)nc3nc(C)nn23)cc1 here?
A: Its activity change (PNC), negative = inhibition is inconclusive: -47%.

Q: With O=C(N/N=C/c1ccccc1)c1[nH]c2ccc(Br)cc2c1-c1ccccc1 as the compound, how does the activity change (PNC), negative = inhibition read?
A: The activity change (PNC), negative = inhibition was inconclusive: -40.3%.

Q: Which activity change (PNC), negative = inhibition does the source give for O=C(NC(NC(=O)c1ccccc1)C(=O)c1ccccc1)c1ccccc1 here?
A: Its activity change (PNC), negative = inhibition is inconclusive: -33.7%.

Q: Which activity change (PNC), negative = inhibition does the source give for O=C(NC(=S)Nc1ccc(N2CCOCC2)c(Cl)c1)c1sc2ccccc2c1Cl here?
A: The activity change (PNC), negative = inhibition was inactive: -2.38%.

Q: Which activity change (PNC), negative = inhibition does the source give for COc1cc2c(cc1OC)CN(CC(=O)Nc1ccc(C)cc1)CC2 here?
A: The activity change (PNC), negative = inhibition was active: -89.5%.

Q: Which activity change (PNC), negative = inhibition does the source give for COC(=O)C1=C(C)N(Cc2ccco2)C(=O)/C1=C\c1ccc(N(C)C)cc1 here?
A: Its activity change (PNC), negative = inhibition is inactive: 98.2%.

Q: Which activity change (PNC), negative = inhibition does the source give for CN(Cc1ccccc1)c1nc2c(c(=O)[nH]c(=O)n2C)n1CCCc1ccccc1 here?
A: Its activity change (PNC), negative = inhibition is inconclusive: -34.6%.

Q: For O=C(Cn1ncc2c(=O)oc3ccccc3c21)NCC1CCCO1 (centres undefined), which activity change (PNC), negative = inhibition is on record?
A: The activity change (PNC), negative = inhibition was active: -119%.

Q: With Cc1cccc(N/C=C/c2onc(C)c2[N+](=O)[O-])c1 as the compound, how does the activity change (PNC), negative = inhibition read?
A: The activity change (PNC), negative = inhibition was inconclusive: -39.1%.

Q: With COCCOC(=O)c1[nH]c2c(c1C)C(=O)CC(c1ccccc1)C2 (centres undefined) as the compound, how does the activity change (PNC), negative = inhibition read?
A: Its activity change (PNC), negative = inhibition is active: -100%.

Q: With COc1ccc(/C=N/NC(=O)c2cc(-c3ccccc3OC(C)C)nc3ccccc23)cc1CN1CCOCC1 as the compound, how does the activity change (PNC), negative = inhibition read?
A: Its activity change (PNC), negative = inhibition is inconclusive: -58.8%.

Q: Which activity change (PNC), negative = inhibition does the source give for c1ccc(-c2cc(-c3nnc4n3N=C(c3ccc5ccccc5c3)CS4)[nH]n2)cc1 here?
A: The activity change (PNC), negative = inhibition was inconclusive: -36.7%.

Q: With O=C(COC(=O)/C=C/c1cccs1)NC(c1ccccc1)c1ccccc1 as the compound, how does the activity change (PNC), negative = inhibition read?
A: Its activity change (PNC), negative = inhibition is active: -119%.

Q: Which activity change (PNC), negative = inhibition does the source give for N#Cc1ccccc1Cn1c(=O)n(CCC(=O)NCc2ccco2)c(=O)c2ccccc21 here?
A: Its activity change (PNC), negative = inhibition is inconclusive: -54%.

Q: Which activity change (PNC), negative = inhibition does the source give for CC(C)CCNC(=O)NC(=O)COC(=O)C1CCN(S(=O)(=O)c2ccccc2F)CC1 here?
A: Its activity change (PNC), negative = inhibition is inconclusive: -39.3%.

Q: With O=C(Nc1ccc2c(c1)OCCO2)c1ccc(Cl)c(S(=O)(=O)N2CCCCC2)c1 as the compound, how does the activity change (PNC), negative = inhibition read?
A: Its activity change (PNC), negative = inhibition is inconclusive: -33.1%.

Q: For O=C(COc1ccc(Cl)cc1Cl)NCCSc1ccc(Cl)cc1, which activity change (PNC), negative = inhibition is on record?
A: Its activity change (PNC), negative = inhibition is inconclusive: -36.1%.

Q: Which activity change (PNC), negative = inhibition does the source give for CNC(=O)c1ccc(-c2sc3nc(N4CCOCC4)c4c(c3c2N)CC(C)(C)OC4)o1 here?
A: The activity change (PNC), negative = inhibition was inconclusive: -51.3%.

Q: For O=C(CSc1nc2ccccc2s1)NNC(=S)Nc1ccccc1, which activity change (PNC), negative = inhibition is on record?
A: The activity change (PNC), negative = inhibition was inconclusive: -47.3%.

Q: For O=C1CN2C(=Nc3ccc(Br)cc3C2c2ccccc2)CCN1 (centres undefined), which activity change (PNC), negative = inhibition is on record?
A: The activity change (PNC), negative = inhibition was inconclusive: -45.7%.

Q: With CCCCCCc1nc2ccccc2c(=O)n1NC(=O)c1c(O)c2c(n(CC(C)C)c1=O)CCCC2 as the compound, how does the activity change (PNC), negative = inhibition read?
A: The activity change (PNC), negative = inhibition was inconclusive: -67.6%.

Q: Which activity change (PNC), negative = inhibition does the source give for COc1cccc(C2=NOC(C(=O)N3CCc4ccccc4C3)C2)c1 (centres undefined) here?
A: Its activity change (PNC), negative = inhibition is inconclusive: -45.2%.

Q: With Cc1ccc(S(=O)(=O)NC(CC(=O)NCC2CCCO2)c2ccco2)cc1 (centres undefined) as the compound, how does the activity change (PNC), negative = inhibition read?
A: The activity change (PNC), negative = inhibition was inconclusive: -42%.

Q: With CCOc1ccc(/C(O)=C2/C(=O)C(=O)N(CC3CCCO3)C2c2cccs2)cc1 (centres undefined) as the compound, how does the activity change (PNC), negative = inhibition read?
A: The activity change (PNC), negative = inhibition was inactive: -14.1%.

Q: With O=C(O)CCNS(=O)(=O)c1ccc(Oc2ccccc2)cc1 as the compound, how does the activity change (PNC), negative = inhibition read?
A: The activity change (PNC), negative = inhibition was inconclusive: -45.3%.

Q: With Cc1cccc(OCC(=O)NC(C)C(=O)N/N=C/c2c(OCc3ccccc3)ccc3ccccc23)c1 (centres undefined) as the compound, how does the activity change (PNC), negative = inhibition read?
A: Its activity change (PNC), negative = inhibition is inconclusive: -40.3%.

Q: Which activity change (PNC), negative = inhibition does the source give for COc1ccc(CN(C(C)=O)c2cccc(C)c2C)cc1 here?
A: Its activity change (PNC), negative = inhibition is active: -107%.

Q: With OC1CCN(C(=S)NCCc2ccccc2)CC1 as the compound, how does the activity change (PNC), negative = inhibition read?
A: The activity change (PNC), negative = inhibition was inconclusive: -30.6%.

Q: Which activity change (PNC), negative = inhibition does the source give for COC(=O)c1ccccc1NC(=O)/C=C/c1cc(OC)c(OC)c(OC)c1 here?
A: The activity change (PNC), negative = inhibition was inactive: 17.4%.

Q: Which activity change (PNC), negative = inhibition does the source give for Cc1ccccc1Nc1ccc(S(=O)(=O)N2CCOCC2)cc1[N+](=O)[O-] here?
A: The activity change (PNC), negative = inhibition was inconclusive: -37.6%.

Q: With Cc1cc(C)nc(SCC(=O)N/N=C/C=C/c2ccccc2)n1 as the compound, how does the activity change (PNC), negative = inhibition read?
A: Its activity change (PNC), negative = inhibition is inconclusive: -59.8%.

Q: With Cc1ccnc(N(C(=O)c2cccs2)C(=O)c2cccs2)c1 as the compound, how does the activity change (PNC), negative = inhibition read?
A: The activity change (PNC), negative = inhibition was inconclusive: -72.1%.

Q: For O=C(Nc1ccc(Oc2cccnc2)cc1)c1ccccc1Cl, which activity change (PNC), negative = inhibition is on record?
A: Its activity change (PNC), negative = inhibition is inconclusive: -41%.

Q: For Cc1cnn(CCC(=O)NNC(=S)Nc2cccc(Cl)c2)c1, which activity change (PNC), negative = inhibition is on record?
A: Its activity change (PNC), negative = inhibition is inactive: 19.8%.

Q: With CCn1c(C(C)NC(=O)c2ccc(C)cc2)n[nH]c1=S (centres undefined) as the compound, how does the activity change (PNC), negative = inhibition read?
A: Its activity change (PNC), negative = inhibition is inactive: 8.92%.

Q: Which activity change (PNC), negative = inhibition does the source give for Nc1ccc(Oc2ccc([N+](=O)[O-])cc2[N+](=O)[O-])cc1 here?
A: Its activity change (PNC), negative = inhibition is inactive: 8.85%.
